Reference: patent US5200397A (W. R. Grace & Co.-Conn., priority 1991, dated 1993)
For some assays here: Some peptides are written in HELM: one residue between dots, names in brackets for other building blocks, links after the first $.

What was measured:
[1] = general procedure: Boc solid-phase peptide synthesis; p-methylbenzhydrylamine resin; HOBT-ester of t-boc amino acid; settings: whole synthesis, analytical reverse-phase HPLC, scale of the general procedure 0.1 mmole or 0.5 mmole, TFA salt
[2] = general procedure: Boc solid-phase peptide synthesis; t-boc-Gly-OCH2 PAM resin; HOBT-ester of t-boc amino acid; settings: whole synthesis, analytical reverse-phase HPLC, scale of the general procedure 0.1 mmole or 0.5 mmole, TFA salt

Row | Substance | final HPLC purity [1] [%] | final HPLC purity [2] [%]
1 | WSPCSVTCG-NH2 (C-amide) | 90 | 
2 | PEPTIDE1{W.S.P.C.S.V.T.C.G}$$$$V2.0 |  | 90
